No end group written: not given here.
Test system: hRpn13 Pru
Experiment: Crystal structure of hRpn13 Pru:ENT (atomic distances)
Assay type: binding, human

With GPGSMTT [ENT] the Distance (Pru-A Gly 91 Cα to ENT Met 1 Cε) was 3.77 Å, the Distance (Pru-A Gly 91 N to ENT Met 1 Cε) was 3.69 Å and the Distance (Pru-A Lys 42 Cγ to ENT Ser d O) was 3.76 Å. For the same substance, the Distance (Pru-A Lys 42 Cδ to ENT Thr 2 O) was 3.76 Å, the Distance (Pru-A Lys 42 Cε to ENT Gly c O) was 3.17 Å and the Distance (Pru-A Lys 42 Cε to ENT Ser d C) was 3.67 Å. For the same substance, the Distance (Pru-A Lys 42 Cε to ENT Ser d O) was 3.22 Å, the Distance (Pru-A Lys 42 Cε to ENT Thr 2 O) was 3.41 Å and the Distance (Pru-A Lys 42 Nζ to ENT Gly c C) was 3.84 Å. It also gave a Distance (Pru-A Lys 42 Nζ to ENT Gly c O) of 2.66 Å, a Distance (Pru-A Lys 42 Nζ to ENT Pro b Cγ) of 3.76 Å and a Distance (Pru-A Lys 42 Nζ to ENT Pro b Cδ) of 3.82 Å. It also gave a Distance (Pru-A Lys 42 Nζ to ENT Thr 2 O) of 2.74 Å, a Distance (Pru-A Pro 40 Cβ to ENT Met 1 Cγ) of 3.67 Å and a Distance (Pru-A Pro 40 Cβ to ENT Ser d O) of 3.56 Å. It also gave a Distance (Pru-A Pro 40 Cγ to ENT Ser d Cβ) of 3.73 Å, a Distance (Pru-A Pro 40 Cγ to ENT Ser d Oγ) of 3.61 Å and a Distance (Pru-A Pro 40 Cδ to ENT Ser d Cβ) of 3.9 Å. It also gave a Distance (Pru-A Ser 90 C to ENT Met 1 Cε) of 3.62 Å, a Distance (Pru-A Ser 90 O to ENT Met 1 Cβ) of 3.9 Å and a Distance (Pru-A Ser 90 O to ENT Met 1 Cε) of 3.63 Å. It also gave a Distance (Pru-A Trp 108 CH2 to ENT Met 1 O) of 3.78 Å, a Distance (Pru-A Trp 108 Cβ to ENT Met 1 Sδ) of 3.59 Å and a Distance (Pru-A Trp 108 Cγ to ENT Met 1 Cγ) of 3.88 Å. For the same substance, the Distance (Pru-A Trp 108 Cγ to ENT Met 1 Sδ) was 3.73 Å, the Distance (Pru-A Trp 108 Cδ2 to ENT Met 1 Cγ) was 3.65 Å and the Distance (Pru-A Trp 108 Cε3 to ENT Met 1 Cβ) was 3.8 Å. The Distance (Pru-A Trp 108 Cζ3 to ENT Met 1 O) was 3.44 Å, the Distance (Pru-A Val 93 Cγ2 to ENT Met 1 Sδ) was 3.85 Å and the “distance N68 Oδ1 (Pru-C) to ^aG amide nitrogen” value (x-ray structure) was 4.2 Å.

From article PMC12218921, “An adaptive peptide-binding site in ubiquitin receptor hRpn13 revealed by structural studies” (Nature Communications, 2025)
